Some of the results follow.
Compound: Cc1ccc(C(=O)N(CCCN)[C@@H](c2nc3cc(Cl)ccc3c(=O)n2Cc2ccccc2)C(C)C)cc1 [ispinesib]
Experiment: log2 fold change, soluble protein after heating vs DMSO (PISA); higher = thermal stabilisation; K562 cells, 10 uM, 30 min; active = over 0.2 and 3.5 SD of the protein, either way, in both replicates (recomputed)
How it was run: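 Quantification of soluble protein used TMTpro 16plex LC-MS/MS, with channel sums equalised. Samples were the supernatant after 21,000xg for 90 min of pooled aliquots from K562 cells (2×10^6 cells/mL) treated with 10 μM compound for 30 min, heated for 3 min over 48°C-58°C, and extracted in PBS with 0.5% NP-40 at 4°C. Values, from duplicates, describe thermal stability against control samples on a log2 fold-change scale.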

Protein sequences, listed by entry. Tags and fused reporters are not part of them. Lines headed by an entry give the natural chain unless they say otherwise; changes in a name come on top.
UniProt Q8WXX5: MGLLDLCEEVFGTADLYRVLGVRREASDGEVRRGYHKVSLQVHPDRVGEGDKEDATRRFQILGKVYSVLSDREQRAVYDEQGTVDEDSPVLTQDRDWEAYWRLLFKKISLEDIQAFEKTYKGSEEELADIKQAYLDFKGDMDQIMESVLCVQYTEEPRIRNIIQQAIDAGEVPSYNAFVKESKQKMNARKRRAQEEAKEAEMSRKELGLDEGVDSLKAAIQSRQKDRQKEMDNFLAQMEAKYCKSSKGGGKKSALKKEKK
UniProt P42126: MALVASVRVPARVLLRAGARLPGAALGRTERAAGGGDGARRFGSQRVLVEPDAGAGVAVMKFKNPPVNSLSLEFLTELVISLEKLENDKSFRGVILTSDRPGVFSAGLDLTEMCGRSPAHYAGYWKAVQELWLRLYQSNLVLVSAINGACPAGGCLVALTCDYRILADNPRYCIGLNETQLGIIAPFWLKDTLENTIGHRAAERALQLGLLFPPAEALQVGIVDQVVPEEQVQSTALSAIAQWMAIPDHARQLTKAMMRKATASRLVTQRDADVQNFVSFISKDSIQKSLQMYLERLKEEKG
UniProt P42892: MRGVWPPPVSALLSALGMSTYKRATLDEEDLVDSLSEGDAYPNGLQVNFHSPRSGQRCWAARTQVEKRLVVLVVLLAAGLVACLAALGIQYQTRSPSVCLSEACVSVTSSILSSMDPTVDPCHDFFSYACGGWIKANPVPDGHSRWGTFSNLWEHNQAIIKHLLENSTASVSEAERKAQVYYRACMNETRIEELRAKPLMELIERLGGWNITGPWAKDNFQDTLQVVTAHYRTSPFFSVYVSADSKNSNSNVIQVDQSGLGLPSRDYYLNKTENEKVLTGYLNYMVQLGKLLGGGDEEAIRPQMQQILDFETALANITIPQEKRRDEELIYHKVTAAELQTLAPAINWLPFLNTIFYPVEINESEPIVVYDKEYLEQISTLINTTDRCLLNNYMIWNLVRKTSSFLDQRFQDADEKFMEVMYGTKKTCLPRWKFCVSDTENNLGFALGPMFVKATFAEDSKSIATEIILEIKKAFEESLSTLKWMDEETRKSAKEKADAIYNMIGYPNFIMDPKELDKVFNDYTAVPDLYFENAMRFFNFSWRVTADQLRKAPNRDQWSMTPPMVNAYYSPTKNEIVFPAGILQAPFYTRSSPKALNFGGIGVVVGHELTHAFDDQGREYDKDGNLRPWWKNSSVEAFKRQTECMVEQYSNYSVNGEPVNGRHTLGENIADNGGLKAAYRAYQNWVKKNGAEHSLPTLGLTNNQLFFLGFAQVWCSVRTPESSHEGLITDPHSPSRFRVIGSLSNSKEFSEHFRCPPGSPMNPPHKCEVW
UniProt Q9NVM6: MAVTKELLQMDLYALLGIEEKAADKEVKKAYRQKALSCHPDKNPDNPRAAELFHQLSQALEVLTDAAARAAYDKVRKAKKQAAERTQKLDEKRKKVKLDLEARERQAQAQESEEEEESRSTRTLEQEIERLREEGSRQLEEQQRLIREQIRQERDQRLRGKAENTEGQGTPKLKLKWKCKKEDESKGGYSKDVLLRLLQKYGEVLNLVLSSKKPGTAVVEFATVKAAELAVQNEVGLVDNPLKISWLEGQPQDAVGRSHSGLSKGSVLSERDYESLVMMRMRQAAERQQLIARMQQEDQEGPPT
UniProt Q9BQC3: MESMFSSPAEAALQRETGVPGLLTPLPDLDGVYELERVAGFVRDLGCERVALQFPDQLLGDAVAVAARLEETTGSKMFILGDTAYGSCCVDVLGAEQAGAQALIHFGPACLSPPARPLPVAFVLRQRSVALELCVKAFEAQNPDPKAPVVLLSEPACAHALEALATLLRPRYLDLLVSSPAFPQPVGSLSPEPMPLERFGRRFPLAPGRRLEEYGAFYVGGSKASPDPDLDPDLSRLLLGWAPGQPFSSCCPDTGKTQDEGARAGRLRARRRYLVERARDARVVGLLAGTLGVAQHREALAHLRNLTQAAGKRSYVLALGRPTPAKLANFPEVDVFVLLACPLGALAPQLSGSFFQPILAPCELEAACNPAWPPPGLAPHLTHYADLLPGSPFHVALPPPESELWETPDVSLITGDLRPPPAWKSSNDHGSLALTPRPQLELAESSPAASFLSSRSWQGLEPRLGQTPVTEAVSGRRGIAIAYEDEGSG
UniProt Q9BZQ6: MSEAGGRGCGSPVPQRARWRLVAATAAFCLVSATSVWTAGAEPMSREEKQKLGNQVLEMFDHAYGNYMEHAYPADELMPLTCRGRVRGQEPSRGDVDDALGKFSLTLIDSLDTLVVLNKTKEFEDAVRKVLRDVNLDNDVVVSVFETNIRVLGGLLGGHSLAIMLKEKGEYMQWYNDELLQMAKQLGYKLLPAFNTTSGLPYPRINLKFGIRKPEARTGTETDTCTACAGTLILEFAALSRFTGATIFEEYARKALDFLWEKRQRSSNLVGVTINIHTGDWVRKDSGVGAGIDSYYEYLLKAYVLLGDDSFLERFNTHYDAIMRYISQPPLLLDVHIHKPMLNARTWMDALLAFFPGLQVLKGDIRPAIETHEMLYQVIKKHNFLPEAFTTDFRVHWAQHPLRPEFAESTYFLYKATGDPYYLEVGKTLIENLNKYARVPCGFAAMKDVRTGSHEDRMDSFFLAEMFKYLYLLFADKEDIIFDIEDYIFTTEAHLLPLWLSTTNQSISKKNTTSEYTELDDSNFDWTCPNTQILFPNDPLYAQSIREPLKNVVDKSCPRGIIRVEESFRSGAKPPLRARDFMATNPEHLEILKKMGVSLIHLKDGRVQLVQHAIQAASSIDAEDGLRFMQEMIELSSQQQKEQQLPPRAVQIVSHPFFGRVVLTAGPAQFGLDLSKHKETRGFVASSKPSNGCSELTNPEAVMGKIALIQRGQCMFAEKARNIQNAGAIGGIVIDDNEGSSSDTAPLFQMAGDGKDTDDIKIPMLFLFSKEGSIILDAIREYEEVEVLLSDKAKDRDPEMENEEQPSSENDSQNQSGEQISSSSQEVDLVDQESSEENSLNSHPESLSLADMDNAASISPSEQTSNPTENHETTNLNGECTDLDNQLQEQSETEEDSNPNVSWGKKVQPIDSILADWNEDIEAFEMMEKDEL
UniProt P60981: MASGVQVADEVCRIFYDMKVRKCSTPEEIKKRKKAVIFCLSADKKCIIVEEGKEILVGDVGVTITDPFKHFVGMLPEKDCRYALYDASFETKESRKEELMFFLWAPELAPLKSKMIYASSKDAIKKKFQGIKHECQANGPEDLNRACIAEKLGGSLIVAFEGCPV
UniProt O60869: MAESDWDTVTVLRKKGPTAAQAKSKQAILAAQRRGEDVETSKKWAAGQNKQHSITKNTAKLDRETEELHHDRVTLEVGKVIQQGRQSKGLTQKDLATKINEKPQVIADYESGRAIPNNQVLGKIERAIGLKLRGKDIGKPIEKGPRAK
UniProt Q9NVH1: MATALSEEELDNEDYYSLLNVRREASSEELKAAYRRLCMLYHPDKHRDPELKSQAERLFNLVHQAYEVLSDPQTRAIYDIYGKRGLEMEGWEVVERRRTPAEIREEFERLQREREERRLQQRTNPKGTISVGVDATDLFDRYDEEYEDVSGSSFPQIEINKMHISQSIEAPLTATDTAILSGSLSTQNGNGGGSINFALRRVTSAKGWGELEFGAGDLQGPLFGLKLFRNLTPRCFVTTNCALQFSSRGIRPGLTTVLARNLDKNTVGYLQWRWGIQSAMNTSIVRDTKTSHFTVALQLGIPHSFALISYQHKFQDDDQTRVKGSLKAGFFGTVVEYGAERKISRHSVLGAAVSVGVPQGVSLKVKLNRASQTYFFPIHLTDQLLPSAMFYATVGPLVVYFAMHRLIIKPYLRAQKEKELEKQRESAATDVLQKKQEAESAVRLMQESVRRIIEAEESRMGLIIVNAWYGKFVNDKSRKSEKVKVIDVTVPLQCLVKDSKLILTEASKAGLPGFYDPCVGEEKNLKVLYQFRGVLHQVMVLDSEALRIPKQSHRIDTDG
UniProt Q96EY1: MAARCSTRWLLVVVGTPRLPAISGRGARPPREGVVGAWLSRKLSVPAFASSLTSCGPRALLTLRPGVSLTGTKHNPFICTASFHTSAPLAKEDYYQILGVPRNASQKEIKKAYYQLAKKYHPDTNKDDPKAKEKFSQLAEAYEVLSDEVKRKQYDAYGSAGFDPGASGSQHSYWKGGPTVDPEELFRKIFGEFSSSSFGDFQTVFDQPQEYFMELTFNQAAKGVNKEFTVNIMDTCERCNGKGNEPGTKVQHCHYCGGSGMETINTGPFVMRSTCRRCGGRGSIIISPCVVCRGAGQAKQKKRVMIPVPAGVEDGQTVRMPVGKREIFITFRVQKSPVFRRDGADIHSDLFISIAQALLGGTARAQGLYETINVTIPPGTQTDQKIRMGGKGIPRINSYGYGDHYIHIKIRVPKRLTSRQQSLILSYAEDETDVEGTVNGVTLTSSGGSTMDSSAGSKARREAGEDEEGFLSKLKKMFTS
UniProt Q9BVJ7: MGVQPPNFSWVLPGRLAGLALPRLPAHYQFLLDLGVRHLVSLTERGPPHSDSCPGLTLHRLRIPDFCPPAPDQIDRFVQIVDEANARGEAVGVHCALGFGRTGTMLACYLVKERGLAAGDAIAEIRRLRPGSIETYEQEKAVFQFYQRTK
UniProt Q01658: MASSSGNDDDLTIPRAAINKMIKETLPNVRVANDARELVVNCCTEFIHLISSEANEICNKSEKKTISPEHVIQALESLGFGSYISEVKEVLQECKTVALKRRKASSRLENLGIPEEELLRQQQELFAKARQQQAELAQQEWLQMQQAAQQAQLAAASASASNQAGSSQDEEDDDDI
UniProt O00559: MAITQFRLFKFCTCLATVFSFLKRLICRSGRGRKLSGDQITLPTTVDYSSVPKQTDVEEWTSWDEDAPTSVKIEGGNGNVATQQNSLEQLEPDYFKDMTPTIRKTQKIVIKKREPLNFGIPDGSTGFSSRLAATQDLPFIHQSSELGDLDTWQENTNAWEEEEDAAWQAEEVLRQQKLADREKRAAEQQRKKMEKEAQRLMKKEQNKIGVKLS
UniProt O75937: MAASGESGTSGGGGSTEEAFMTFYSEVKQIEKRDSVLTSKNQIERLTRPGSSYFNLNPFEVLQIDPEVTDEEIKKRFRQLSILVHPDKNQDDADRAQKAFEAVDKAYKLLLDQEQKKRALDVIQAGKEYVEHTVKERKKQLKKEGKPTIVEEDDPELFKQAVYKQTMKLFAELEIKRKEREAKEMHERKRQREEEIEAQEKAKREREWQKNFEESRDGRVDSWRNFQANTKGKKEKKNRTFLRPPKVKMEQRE
UniProt Q9UBS4: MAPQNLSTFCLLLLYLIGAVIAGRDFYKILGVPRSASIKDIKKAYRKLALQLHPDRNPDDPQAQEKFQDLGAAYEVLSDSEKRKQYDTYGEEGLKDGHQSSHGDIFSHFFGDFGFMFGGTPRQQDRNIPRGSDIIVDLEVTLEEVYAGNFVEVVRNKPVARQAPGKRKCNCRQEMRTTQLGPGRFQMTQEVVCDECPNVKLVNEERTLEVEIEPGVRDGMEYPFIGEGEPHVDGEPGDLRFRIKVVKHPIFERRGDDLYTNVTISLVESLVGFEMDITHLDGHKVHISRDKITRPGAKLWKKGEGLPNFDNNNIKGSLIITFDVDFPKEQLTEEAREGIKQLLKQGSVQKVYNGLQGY
UniProt Q9NZJ0: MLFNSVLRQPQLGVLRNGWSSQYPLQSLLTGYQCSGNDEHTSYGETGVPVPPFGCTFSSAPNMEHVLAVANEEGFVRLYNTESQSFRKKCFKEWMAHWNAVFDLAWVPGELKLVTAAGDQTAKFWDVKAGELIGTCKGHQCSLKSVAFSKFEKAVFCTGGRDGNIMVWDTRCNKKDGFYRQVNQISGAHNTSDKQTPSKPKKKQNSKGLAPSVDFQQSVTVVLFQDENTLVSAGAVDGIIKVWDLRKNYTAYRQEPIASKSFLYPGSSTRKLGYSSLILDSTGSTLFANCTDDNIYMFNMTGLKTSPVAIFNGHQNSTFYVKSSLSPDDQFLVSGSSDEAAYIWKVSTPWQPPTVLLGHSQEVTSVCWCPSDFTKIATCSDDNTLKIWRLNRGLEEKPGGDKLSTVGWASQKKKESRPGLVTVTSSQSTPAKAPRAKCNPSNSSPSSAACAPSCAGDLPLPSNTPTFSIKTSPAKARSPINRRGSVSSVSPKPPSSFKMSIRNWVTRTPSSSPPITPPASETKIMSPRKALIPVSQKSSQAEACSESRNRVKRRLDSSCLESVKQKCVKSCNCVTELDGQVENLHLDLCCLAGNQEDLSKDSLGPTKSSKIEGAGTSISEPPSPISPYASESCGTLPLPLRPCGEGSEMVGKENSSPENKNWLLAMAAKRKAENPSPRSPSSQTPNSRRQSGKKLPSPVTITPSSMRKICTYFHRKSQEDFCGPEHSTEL
UniProt Q14919: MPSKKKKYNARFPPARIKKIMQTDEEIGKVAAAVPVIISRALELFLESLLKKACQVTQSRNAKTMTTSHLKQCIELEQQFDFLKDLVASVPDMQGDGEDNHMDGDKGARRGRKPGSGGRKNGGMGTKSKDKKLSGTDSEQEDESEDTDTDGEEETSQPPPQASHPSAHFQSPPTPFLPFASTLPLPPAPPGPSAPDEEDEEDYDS

Target	log2 fold change
DNAJC9 (UniProt Q8WXX5)	inactive: -0.013
ECI1 (UniProt P42126)	inactive: 0.036
ECE1 (UniProt P42892)	inactive: -0.053
DNAJB4 (UniProt Q9UDY4)	inactive: -0.051
DNAJC17 (UniProt Q9NVM6)	inactive: 0.059
DPH2 (UniProt Q9BQC3)	inactive: -0.063
EDEM3 (UniProt Q9BZQ6)	inactive: -0.008
DSTN (UniProt P60981)	inactive: 0.085
DNAJC3 (UniProt Q13217)	inactive: 0.003
DOCK11 (UniProt Q5JSL3)	inactive: -0.07
DSG2 (UniProt Q14126)	inactive: -0.078
EDF1 (UniProt O60869)	inactive: 0.022
DNAJC11 (UniProt Q9NVH1)	inactive: -0.001
DPH7 (UniProt Q9BTV6)	inactive: 0.014
DNAJA3 (UniProt Q96EY1)	inactive: -0.03
DUSP23 (UniProt Q9BVJ7)	inactive: 0.143
DST (UniProt Q03001)	inactive: -0.103
DR1 (UniProt Q01658)	inactive: 0.026
EBAG9 isoform 2 (UniProt O00559)	inactive: -0.037
DNAJC8 (UniProt O75937)	inactive: 0.054
DNAJB11 (UniProt Q9UBS4)	inactive: -0.018
DUT (UniProt P33316)	inactive: -0.015
DTL (UniProt Q9NZJ0)	inactive: -0.012
DRAP1 isoform 2 (UniProt Q14919)	inactive: 0.035

Random excerpt: 2 entries already listed.
Target	log2 fold change
DNAJB4 (UniProt Q9UDY4)	inactive: -0.051
DUSP23 (UniProt Q9BVJ7)	inactive: 0.143
